Results on 6 substances are retold here after publication PMC6449863 (Frontiers in Chemistry, 2019).

The data set in a line: general procedure: Fmoc solid-phase peptide synthesis; Rink Amide MHBA resin (100–200 mesh; loading 0.5 mmol/g); DIC/HOAt/iPr2NEt. The note with it: whole synthesis, acetate salt; for final HPLC purity: scale of the general procedure 0.100 mmol; for isolated mass / isolated yield: scale 0.100 mmol.

Strings that start with PEPTIDE1 are HELM notation: dots part the residues, brackets hold end groups and non-standard residues.

Regarding “PEPTIDE1{[ac].[Aib].I.D.N.[Aib].W.R.K.[Aib].Q.[am]}$$$$V2.0”, the “final HPLC purity” value was above 99%, the isolated mass is listed as 25 mg and the isolated yield turned out to be 20%.
On the same counts, the results for “PEPTIDE1{[ac].[Aib].W.D.N.[Aib].W.R.K.[Aib].W.[am]}$$$$V2.0” are 99%, 41 mg and 30%.
On the same counts, the results for “PEPTIDE1{[ac].I.D.N.E.W.R.K.T.Q.[am]}$$$$V2.0” are above 99%, 6 mg and 12%.
On the same counts, the results for “Ac-Api-Trp-As p -Asn-(αMe)Asp- Trp- Arg -Api-T hr -Trp- amide” are above 99%, 11 mg and 7%.
As to “PEPTIDE1{[ac].W.D.N.E.W.R.K.T.W.[am]}$$$$V2.0”, the “final HPLC purity” value is listed as 97%, the isolated mass came out at 22 mg and the isolated yield stood at 16%.
On the same counts, the results for “Ac-Trp-(αMe)Asp- Asn-(αMe)Asp- Trp- Arg-Api-Thr-Trp-amide” are above 99%, 18 mg and 13%.
